Assay [1] concerns the target YB-1-CSD (1–180 aa.) (human) (UniProt P67809). As to the kind of experiment: native gel or EMSA; Supplementary Fig. S3a; the text speaks of mRNA and of ssDNA, the methods of circular phage ssDNA M13mp18 0.07 μM (agarose 0.8%, TAE 1X) and DNA stem loops; Tris 20 mM pH 7.6, NaCl 40 mM, DTT 0.5 mM, room temperature 30 min; nucleic acid added last; both purified. (A gel shift assay detects complexes by their altered migration in electrophoresis.)

Sequences of proteins named here, by UniProt entry; tags and fusion partners are left off. A change or cut given only in a name is not applied to a line headed by its entry. Residues count along the entry.
UniProt P67809: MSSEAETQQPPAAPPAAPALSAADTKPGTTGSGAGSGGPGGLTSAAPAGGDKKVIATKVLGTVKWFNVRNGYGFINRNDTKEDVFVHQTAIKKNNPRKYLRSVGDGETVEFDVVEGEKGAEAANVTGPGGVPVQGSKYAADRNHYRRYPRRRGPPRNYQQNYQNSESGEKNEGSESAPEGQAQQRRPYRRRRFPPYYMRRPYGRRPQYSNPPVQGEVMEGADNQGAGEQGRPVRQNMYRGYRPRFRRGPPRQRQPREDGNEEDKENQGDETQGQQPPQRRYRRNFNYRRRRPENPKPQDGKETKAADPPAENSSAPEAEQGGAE
YB-1-CSD (1–180 aa.): residues 1-180 of P67809
UniProt P35637, residues 165-385: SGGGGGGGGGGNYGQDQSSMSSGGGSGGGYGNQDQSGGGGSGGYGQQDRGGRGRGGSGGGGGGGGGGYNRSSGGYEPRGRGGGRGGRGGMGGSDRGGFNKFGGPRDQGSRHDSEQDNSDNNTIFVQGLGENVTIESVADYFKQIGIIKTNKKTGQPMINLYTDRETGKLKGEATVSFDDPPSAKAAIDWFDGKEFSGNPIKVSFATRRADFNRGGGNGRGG
UniProt Q13148, residues 101-277: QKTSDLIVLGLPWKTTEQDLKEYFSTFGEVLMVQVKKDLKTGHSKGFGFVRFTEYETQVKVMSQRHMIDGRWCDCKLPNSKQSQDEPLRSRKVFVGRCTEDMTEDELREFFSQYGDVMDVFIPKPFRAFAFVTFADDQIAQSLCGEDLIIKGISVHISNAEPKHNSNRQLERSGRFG

Assay [2] addresses T1, Lin28 – C-ter (truncation, 117–209 aa.) fused to RFP-MBD (human) (UniProt Q9H9Z2).
T1 sequence: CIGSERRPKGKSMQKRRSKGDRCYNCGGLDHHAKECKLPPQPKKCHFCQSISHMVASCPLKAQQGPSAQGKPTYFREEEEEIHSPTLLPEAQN
As to the kind of experiment: microtubule bench assay (a GFP-labelled prey is brought onto microtubules by a bait fused to RFP-MBD); HeLa cells co-expressing bait (RFP-MBD fusion, on microtubules) and GFP-labelled prey for 24 h; fixed with methanol then PFA; Spearman's coefficient or prey versus bait intensity on microtubules.

The target in assay [3] is T2, GFP-labeled full length LARP6 (UniProt Q9BRS8).
T2 sequence: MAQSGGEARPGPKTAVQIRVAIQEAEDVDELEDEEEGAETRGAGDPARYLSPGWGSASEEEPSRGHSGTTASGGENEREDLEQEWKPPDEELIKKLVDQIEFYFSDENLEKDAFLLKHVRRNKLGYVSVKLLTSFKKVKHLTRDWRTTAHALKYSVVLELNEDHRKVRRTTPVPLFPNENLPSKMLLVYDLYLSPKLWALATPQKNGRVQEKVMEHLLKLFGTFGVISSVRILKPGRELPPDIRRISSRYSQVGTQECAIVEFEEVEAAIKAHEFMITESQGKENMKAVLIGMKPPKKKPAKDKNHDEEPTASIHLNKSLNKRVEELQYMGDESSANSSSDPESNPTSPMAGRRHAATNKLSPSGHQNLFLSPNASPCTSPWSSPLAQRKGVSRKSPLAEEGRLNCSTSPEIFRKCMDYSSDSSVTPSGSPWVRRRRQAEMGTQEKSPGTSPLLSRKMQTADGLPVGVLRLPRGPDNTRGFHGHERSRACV
Nature of the assay: proximity ligation; HeLa cells expressing the GFP-labelled protein for 24 h; anti-YB-1 and anti-GFP primary antibodies; PLA signal plotted against GFP intensity at the single cell level.

Results are given in words; binding and its absence hold for the method and conditions named. For some of these results: In cells and extracts the contact can be indirect. For some of these results: Tags and fused reporters may be left off the sequences shown.

Regarding “FUS (RRM, 165–385aa.) (from UniProt P35637-1 165-385) (domain or fragment)”, the binding result in assay [1] is recorded as “no binding”. As for “GFP-labeled full length YB-1 (prey) (from UniProt P67809 1-324)”, the binding entry in assay [2] was “no binding”.

“TDP43 (RRM 1–2, 101–277aa.) (from UniProt Q13148-1 101-277) (domain or fragment)”: the binding entry in assay [1] is “no binding”. Regarding “endogenous YB-1 (from UniProt P67809 1-324)”, the binding result in assay [3] was “no binding”.
